This is an account of results in the supplement of paper PMC12819154, “High-throughput peptide-centric local stability assay extends protein–ligand identification to membrane proteins, tissues and bacteria” (Nature Structural & Molecular Biology, 2025).

Sequences of proteins named here, by UniProt entry; tags and fusion partners are left off. A change or cut given only in a name is not applied to a line headed by its entry.
UniProt Q9HAW0, whole entry: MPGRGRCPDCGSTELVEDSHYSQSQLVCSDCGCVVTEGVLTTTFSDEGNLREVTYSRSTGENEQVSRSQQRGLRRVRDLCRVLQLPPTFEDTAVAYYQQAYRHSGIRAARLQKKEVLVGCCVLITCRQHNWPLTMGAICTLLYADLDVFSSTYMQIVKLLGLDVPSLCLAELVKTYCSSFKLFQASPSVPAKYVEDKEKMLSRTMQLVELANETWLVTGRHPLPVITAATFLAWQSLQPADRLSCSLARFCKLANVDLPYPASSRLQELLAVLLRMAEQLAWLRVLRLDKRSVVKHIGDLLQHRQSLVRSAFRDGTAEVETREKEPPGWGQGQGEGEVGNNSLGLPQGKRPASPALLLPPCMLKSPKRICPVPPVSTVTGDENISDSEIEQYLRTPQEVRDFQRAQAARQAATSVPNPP
UniProt Q9H9Y6, whole entry: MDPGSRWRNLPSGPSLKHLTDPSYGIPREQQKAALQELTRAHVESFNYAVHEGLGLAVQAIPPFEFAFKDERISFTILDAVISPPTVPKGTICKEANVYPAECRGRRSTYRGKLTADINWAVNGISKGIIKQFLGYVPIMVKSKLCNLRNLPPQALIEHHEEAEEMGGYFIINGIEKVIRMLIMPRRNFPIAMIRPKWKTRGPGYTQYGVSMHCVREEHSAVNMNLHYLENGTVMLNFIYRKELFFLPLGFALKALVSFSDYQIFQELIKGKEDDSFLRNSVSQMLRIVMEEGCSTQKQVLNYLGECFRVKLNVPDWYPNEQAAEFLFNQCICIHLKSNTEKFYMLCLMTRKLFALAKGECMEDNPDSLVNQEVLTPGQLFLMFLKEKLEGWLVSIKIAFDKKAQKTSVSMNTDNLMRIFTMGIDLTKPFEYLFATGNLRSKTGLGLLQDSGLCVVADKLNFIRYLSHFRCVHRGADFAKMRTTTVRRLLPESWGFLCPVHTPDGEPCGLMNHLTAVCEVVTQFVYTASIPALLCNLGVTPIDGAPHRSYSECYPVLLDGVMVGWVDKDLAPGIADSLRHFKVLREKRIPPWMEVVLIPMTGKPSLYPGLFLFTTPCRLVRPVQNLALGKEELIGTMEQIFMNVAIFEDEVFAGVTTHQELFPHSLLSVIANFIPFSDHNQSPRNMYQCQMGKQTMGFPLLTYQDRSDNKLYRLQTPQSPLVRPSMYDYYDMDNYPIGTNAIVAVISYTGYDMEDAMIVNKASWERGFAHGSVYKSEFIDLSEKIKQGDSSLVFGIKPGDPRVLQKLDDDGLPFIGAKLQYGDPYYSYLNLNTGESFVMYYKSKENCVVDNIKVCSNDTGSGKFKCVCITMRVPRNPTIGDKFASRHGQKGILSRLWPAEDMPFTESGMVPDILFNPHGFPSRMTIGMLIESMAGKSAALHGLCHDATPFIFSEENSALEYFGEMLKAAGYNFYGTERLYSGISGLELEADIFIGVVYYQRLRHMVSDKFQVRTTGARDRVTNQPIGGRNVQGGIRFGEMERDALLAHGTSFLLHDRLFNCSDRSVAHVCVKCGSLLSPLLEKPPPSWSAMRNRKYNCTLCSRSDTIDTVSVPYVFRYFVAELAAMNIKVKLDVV
UniProt Q9H6Y2: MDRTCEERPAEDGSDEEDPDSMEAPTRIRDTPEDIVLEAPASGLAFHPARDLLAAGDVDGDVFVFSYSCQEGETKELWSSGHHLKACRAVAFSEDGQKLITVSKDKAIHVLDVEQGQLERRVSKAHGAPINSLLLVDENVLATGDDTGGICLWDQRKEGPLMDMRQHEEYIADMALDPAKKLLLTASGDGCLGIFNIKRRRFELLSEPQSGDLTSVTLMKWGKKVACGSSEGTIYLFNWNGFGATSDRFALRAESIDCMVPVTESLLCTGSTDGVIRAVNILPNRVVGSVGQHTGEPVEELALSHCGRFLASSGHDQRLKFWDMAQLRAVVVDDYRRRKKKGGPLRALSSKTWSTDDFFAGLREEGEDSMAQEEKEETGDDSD
UniProt Q9H7B2: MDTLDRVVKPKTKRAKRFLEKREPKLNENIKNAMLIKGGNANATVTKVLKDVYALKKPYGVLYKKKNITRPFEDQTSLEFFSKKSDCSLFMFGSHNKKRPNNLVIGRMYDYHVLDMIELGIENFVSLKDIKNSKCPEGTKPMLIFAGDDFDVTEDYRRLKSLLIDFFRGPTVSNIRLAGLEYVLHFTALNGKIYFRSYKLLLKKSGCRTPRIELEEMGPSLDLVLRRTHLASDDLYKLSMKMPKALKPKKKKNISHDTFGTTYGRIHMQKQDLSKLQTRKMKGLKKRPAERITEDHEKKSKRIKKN
UniProt Q9H7D7: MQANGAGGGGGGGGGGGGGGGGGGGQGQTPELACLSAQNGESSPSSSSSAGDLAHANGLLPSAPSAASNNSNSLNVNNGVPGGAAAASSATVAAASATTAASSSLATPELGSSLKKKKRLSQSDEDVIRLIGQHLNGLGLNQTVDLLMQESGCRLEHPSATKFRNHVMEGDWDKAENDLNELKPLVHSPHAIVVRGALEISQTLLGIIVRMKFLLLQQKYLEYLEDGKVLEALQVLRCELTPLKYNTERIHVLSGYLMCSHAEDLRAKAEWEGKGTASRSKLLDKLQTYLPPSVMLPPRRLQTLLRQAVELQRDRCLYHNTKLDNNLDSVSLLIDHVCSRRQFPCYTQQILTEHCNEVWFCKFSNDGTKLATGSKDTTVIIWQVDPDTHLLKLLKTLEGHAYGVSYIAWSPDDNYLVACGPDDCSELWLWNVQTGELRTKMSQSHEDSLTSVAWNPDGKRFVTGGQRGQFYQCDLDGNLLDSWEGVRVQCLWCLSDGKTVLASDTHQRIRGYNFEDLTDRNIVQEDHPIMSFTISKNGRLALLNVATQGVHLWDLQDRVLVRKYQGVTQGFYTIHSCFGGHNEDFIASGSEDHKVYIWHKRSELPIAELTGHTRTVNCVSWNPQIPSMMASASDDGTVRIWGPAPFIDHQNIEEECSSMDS
UniProt Q9H9Q4: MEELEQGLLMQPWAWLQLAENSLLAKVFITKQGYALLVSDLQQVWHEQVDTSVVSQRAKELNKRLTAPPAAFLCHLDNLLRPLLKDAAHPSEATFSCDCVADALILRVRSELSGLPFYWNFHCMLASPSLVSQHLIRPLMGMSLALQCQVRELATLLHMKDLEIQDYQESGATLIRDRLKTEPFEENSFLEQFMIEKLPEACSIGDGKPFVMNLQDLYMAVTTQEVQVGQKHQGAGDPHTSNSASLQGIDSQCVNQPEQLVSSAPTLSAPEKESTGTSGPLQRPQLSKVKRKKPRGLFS
UniProt Q9H334: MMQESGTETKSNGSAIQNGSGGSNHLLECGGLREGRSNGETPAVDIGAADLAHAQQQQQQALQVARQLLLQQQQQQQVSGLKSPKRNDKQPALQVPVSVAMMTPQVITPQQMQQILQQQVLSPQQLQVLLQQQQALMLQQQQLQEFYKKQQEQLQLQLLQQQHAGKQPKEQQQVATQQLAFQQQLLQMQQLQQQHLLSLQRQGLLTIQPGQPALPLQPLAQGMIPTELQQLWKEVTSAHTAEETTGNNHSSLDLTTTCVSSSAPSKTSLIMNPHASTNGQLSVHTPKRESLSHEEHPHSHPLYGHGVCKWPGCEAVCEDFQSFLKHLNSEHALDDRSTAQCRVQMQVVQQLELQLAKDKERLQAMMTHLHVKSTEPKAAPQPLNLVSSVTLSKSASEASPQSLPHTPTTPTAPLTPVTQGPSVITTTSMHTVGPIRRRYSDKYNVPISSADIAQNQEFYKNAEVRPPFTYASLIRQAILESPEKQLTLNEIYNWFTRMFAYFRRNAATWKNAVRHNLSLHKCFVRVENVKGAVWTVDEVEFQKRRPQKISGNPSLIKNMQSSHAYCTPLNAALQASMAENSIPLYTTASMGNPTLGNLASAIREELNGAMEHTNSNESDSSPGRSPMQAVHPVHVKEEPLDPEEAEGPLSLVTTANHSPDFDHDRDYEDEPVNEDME
UniProt Q9HB09: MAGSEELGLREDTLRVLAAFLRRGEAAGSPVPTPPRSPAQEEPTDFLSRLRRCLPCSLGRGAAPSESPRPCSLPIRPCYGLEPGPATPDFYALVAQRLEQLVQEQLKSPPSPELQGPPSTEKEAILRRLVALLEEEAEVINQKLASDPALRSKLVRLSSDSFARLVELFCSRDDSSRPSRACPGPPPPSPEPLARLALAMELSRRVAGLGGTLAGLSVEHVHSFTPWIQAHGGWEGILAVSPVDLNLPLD
UniProt Q9H2L5: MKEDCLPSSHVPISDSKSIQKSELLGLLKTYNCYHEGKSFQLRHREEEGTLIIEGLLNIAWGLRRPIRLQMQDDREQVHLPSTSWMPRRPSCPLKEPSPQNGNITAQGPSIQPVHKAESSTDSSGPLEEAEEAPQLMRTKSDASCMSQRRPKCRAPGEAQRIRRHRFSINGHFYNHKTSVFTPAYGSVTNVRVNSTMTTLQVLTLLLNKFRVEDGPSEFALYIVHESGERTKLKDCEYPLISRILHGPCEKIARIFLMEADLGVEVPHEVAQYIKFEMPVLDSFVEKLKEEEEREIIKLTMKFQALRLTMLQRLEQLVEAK
UniProt Q9H270: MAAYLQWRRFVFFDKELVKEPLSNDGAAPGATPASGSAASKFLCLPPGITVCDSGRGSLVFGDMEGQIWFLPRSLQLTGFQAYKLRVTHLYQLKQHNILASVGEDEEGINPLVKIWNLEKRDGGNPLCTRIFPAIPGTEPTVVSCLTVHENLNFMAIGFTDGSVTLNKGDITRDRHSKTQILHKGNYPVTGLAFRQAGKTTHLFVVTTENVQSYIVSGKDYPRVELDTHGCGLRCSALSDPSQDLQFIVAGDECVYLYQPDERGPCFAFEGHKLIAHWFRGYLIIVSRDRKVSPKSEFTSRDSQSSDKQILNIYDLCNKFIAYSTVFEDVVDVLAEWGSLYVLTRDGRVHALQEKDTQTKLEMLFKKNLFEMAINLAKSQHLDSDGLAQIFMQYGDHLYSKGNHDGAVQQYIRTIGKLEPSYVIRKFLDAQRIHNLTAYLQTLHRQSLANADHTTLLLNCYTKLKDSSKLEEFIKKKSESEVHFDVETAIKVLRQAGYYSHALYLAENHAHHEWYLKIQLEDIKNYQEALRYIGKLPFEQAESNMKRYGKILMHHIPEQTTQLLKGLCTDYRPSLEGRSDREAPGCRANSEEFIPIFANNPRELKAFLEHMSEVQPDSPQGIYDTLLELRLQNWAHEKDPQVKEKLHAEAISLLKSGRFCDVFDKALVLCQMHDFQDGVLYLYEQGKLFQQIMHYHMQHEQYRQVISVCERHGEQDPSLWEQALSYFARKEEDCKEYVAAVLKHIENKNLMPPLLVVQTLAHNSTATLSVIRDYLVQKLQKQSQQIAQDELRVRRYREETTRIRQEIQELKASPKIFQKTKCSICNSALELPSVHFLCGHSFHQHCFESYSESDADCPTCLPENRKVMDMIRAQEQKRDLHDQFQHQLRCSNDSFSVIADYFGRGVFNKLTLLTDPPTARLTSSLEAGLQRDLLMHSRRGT
UniProt Q9H814, whole entry: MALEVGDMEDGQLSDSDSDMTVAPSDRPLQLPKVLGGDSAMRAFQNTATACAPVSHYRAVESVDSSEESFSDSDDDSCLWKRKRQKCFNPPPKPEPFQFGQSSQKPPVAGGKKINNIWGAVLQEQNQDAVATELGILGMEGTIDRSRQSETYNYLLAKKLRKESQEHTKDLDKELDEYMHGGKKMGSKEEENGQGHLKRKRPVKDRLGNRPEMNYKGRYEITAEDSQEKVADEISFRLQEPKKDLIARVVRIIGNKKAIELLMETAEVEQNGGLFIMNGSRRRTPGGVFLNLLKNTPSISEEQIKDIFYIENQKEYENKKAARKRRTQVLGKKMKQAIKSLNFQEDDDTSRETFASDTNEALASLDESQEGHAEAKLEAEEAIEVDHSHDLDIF

The list shows a part of the results. Most entries show no effect beyond the scatter of the controls.

Compound in the assay: Cc1nc(Nc2ncc(C(=O)Nc3c(C)cccc3Cl)s2)cc(N2CCN(CCO)CC2)n1 [dasatinib]
Description: log2 fold change of tryptic peptide abundance, ligand vs vehicle (limited proteolysis) (log2 ratio); higher = more trypsin-susceptible (destabilized). To be noted: ligand concentration: 5 uM; sample: K562 cleared lysate.
As for “BRF2 (peptide sequence: YVEDKEK, peptide start residue: 193) (UniProt Q9HAW0)”, the log2 fold change is -0.461.

For the target “POLR1B (peptide sequence: LFNCSDR, peptide start residue: 1058) (UniProt Q9H9Y6)”, the log2 fold change was -0.0982.

In the case of “WDR55 (peptide sequence: IRDTPEDIVLEAPASGLAFHPAR, peptide start residue: 28) (UniProt Q9H6Y2)”, the log2 fold change worked out at 0.145.

With “UniProt Q9H7B2 (peptide sequence: KPYGVLYK, peptide start residue: 57)”, the log2 fold change was 0.258.

In the case of “WDR26 (peptide sequence: AKAEWEGK, peptide start residue: 267) (UniProt Q9H7D7)”, the log2 fold change was found to be 0.226.

“NHEJ1 (peptide sequence: ELATLLHMK, peptide start residue: 152) (UniProt Q9H9Q4)”: the log2 fold change was -0.0606.

Take “FOXP1 (peptide sequence: QQEQLQLQLLQQQHAGKQPK, peptide start residue: 150) (UniProt Q9H334)”: the log2 fold change turned out to be 0.504.

Consider “BCL2L12 (peptide sequence: LEQLVQEQLK, peptide start residue: 182) (UniProt Q9HB09)”, for which the log2 fold change was 0.0822.

Consider “UniProt Q9H2L5 (peptide sequence: LKEEEER, peptide start residue: 351)”, for which the log2 fold change was -0.0104.

Regarding “VPS11 (peptide sequence: IRQEIQELK, peptide start residue: 803) (UniProt Q9H270)”, the log2 fold change was -0.511.

“PHAX (peptide sequence: RRTPGGVFLNLLK, peptide start residue: 282) (UniProt Q9H814)”: the log2 fold change is 0.671.
